From PMC6017545, “Design, Synthesis, and Biological Evaluation of Novel 1,3,4-Thiadiazole Derivatives as Potential Antitumor Agents against Chronic Myelogenous Leukemia: Striking Effect of Nitrothiazole Moiety” (Molecules : A Journal of Synthetic Chemistry and Natural …, 2017) come the findings set out here.

What is called IC50 is the concentration needed to halve the response being measured.

Holding throughout (assay type): cell-based
One test concerns Jurkat cell line. As to the kind of experiment: MTT cytotoxicity assay, Jurkat cells. The following applies: Homo sapiens, 48 h of incubation, mean ± SD, three independent experiments. Here is the method:
(§1) HeLa human cervical carcinoma cells were incubated in Dulbecco’s modified Eagle’s medium (DMEM) (Wako Pure Chemical Industries, Osaka, Japan) supplemented with 10% fetal bovine serum (FBS) (Equitech-Bio, Kerrville, TX, USA). […] All media were supplemented with 89 μg/mL streptomycin (Meiji Seika Pharma, Tokyo, Japan), and cells were incubated at 37 °C in a humidified atmosphere of 95% air and 5% CO2. Growing cells were plated at 2 × 10^4 cells/mL into 24-well microtiter tissue culture plates (Iwaki brand Asahi Glass Co., Chiba, Japan) and incubated for 48 h before the addition of the drugs (the optimal cell number for cytotoxicity assays was determined in preliminary experiments). […] The concentration of DMSO in the final culture medium was 1%.
(§2) The level of cellular reduction of 3-(4,5-dimethylthiazol-2-yl)-2,5-diphenyltetrazolium bromide (MTT) (Dojindo Molecular Technologies, Kumamoto, Japan) was quantified as previously described in the literature with small modifications. The tested compounds were incubated with cells in various concentrations for 48 h. The cells were then stained with MTT solution and incubated further for 4 h at 37 °C. […] The absorbance of the converted dye in the living cells was measured at a wavelength of 550 nm using a microplate spectrophotometer Infinitive M1000 (Tecan, Groding, Austria). Cell viability was calculated as a percentage of the viable control cells.

The test system of test [1] is K562 chronic myelogenous leukemia cell line. The test is described as follows: MTT cytotoxicity assay, K562 cells. The settings on record: Homo sapiens, 48 h of incubation, mean ± SD, three independent experiments. Here is the method:
as §1, §2
In general terms: Tetrazolium dyes change colour on reduction, which living cells bring about.

Test [2] deals with HeLa human cervical carcinoma cell line. The test is described as follows: MTT cytotoxicity assay, HeLa cells. The following applies: 48 h of incubation, mean ± SD, three independent experiments. Here is the method:
as §1, §2

For another test, the system named is MT-2 cell line. The test is described as follows: MTT cytotoxicity assay, MT-2 cells. The settings on record: Homo sapiens, MT2, 48 h of incubation, mean ± SD, three independent experiments. Here is the method: as §1, §2

For `Cc1ccc(NC(=O)c2ccc(CN3CCN(C)CC3)cc2)cc1Nc1nccc(-c2cccnc2)n1` [Imatinib, imatinib, reference compound], the half-inhibitory concentration (IC50) amounted to 6.7 ± 2 µM in the test with Jurkat cell line, 5 ± 2 µM in test [1], 15.2 ± 6 µM in test [2] and 9.7 ± 3 µM in the test on MT-2 cell line.
